Data published in PubChem BioAssay AID540303 (National Center for Advancing Translational Sciences (NCATS), 2011).
Among all 330,000 compounds or so, about 1,000 (0.3%) were called active. Inconclusive results, whose numbers are uncertain, are shown with a selection of clear calls. The call rests on the fitted dose curve; in most records, active means well fitted inhibition curve with a large enough effect; inconclusive means small, poorly fitted or top-dose-only effect; inactive means no such curve, though single readings can be large or run the other way; tested in mouse RAW 264.7 cells. Potencies of inconclusive entries are doubtful fits and often do not repeat.
On the % scale 0 is the no-effect control and ±100 the full control effect; potency means the concentration at half of the fitted maximal effect.

Experiment: qHTS for Inhibitors of Cell Surface uPA Generation; further: nearly all actives have a fitted effect of over 55% in size
Settings: cell surface uPA generation assay; series mostly up to 38.3 µM; activity change, negative = inhibition: at the top concentration
Outline: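 Murine RAW 264.7 cells are treated for 24 h with compound up to 38.3 uM final. Cell ATP, measured by ATP-Lite, remains high if blocking the uPA cascade prevents LF from reaching the cytoplasm.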
For Nc1c(C(=O)N/N=C/c2ccccc2)cnn1-c1ccccc1, the Potency was inconclusive: 5.62 µM [inhibitor, partial curve]. In the case of CCC(=Cc1ccccc1O)c1ccncc1, the “activity change, negative = inhibition” value is reported as inactive: 1.58%. With O=C(/C=C/Sc1ccccc1)c1ccccc1 the Potency was inconclusive: 10 µM [inhibitor, partial curve]. For O=C(COc1ccccc1)N/N=C/c1ccc([N+](=O)[O-])o1, the Potency was inconclusive: 12.6 µM [inhibitor, single point]. With COc1ccccc1OCCCCCCN1CCOCC1 the “activity change, negative = inhibition” value was inactive: 13.1%. For CC(=O)c1cccc(NC(=O)CSc2nc(N3CCOCC3)nc(N3CCOCC3)n2)c1, the Potency was inconclusive: 1.26 µM [inhibitor, partial curve, poor fit]. For Cc1cc(C)c2c(C(C)(C)C)nn(-c3ccccc3)c2n1, the Potency was inconclusive: 0.794 µM [inhibitor, full curve, poor fit]. With COc1ccc2c(c1OC)C(=O)OC2Nc1nc(-c2ccc(-c3ccccc3)cc2)cs1 (configuration not stated) the Potency was inconclusive: 10 µM [inhibitor, partial curve, poor fit]. With COCCOc1ccc(C(F)(F)F)cc1N the Potency was inconclusive: 28.2 µM [inhibitor, partial curve, poor fit]. With COCCCNC(=O)C[C@H]1C[C@H](C(=O)N2CCOCC2)[C@@]2(CCC3CCCC3)c3[nH]c4cc(-c5ccco5)ccc4c3CCN2C1=O the Potency was inconclusive: 31.6 µM [inhibitor, single point]. With CC(=O)Oc1c(Cl)cc(N(C(C)=O)S(=O)(=O)c2ccccc2)c2ccccc12 the Potency was inconclusive: 7.94 µM [inhibitor, single point]. In the case of CC(=O)Cc1nsc(NC(=O)c2ccc(-c3cc(C(F)(F)F)ccc3Cl)o2)n1, the Potency is reported as inconclusive: 12.6 µM [inhibitor, single point]. For COc1cccc(C(=O)OCCNC(=O)c2cccnc2)c1, the “activity change, negative = inhibition” value was inactive: -0.527%. With CCc1ccc(-c2nc(C(N)=O)c3[nH]c(=O)n(-c4ccccc4OC)c3n2)cc1 the Potency was inconclusive: 1 µM [inhibitor, full curve, poor fit]. For COc1ccc(-c2nc(C(=O)NCC3CCCO3)cc3c2[nH]c2ccccc23)cc1 (configuration not stated), the Potency was inconclusive: 28.2 µM [inhibitor, single point]. With Cc1[nH][nH]c(=O)c1C(c1ccc(Cl)cc1)c1c(C)[nH][nH]c1=O the “activity change, negative = inhibition” value was inactive: 5.69%. In the case of Cc1ccc(C(=O)ON=C2CCN(S(=O)(=O)c3ccccc3)CC2)cc1, the “activity change, negative = inhibition” value is reported as inactive: 5.19%. In the case of COC(=O)CNC(c1ccccc1)c1cc(Cl)ccc1NC(=O)c1cccc(Cl)c1 (configuration not stated), the Potency is reported as inconclusive: 0.501 µM [inhibitor, full curve, poor fit]. With O=C(CSC1=NNC(c2ccccn2)S1)Nc1ccccc1 (configuration not stated) the Potency was inconclusive: 10 µM [inhibitor, partial curve, poor fit]. For C=CCSc1nncn1/N=C/c1ccc(OC)cc1, the “activity change, negative = inhibition” value was inactive: -6.18%. With COc1ccc(/C=C/C(=O)NNC(=O)c2ccncc2)c(OC)c1 the Potency was inconclusive: 8.91 µM [inhibitor, partial curve, poor fit]. For Cc1c(NC(=O)C(C)OC(=O)c2ccc(Cl)nc2)c(=O)n(-c2ccccc2)n1C (configuration not stated), the “activity change, negative = inhibition” value was inactive: -0.0455%. In the case of OC(COCC(F)(F)C(F)(F)C(F)(F)C(F)F)Cn1c2ccccc2c2ccccc21 (configuration not stated), the “activity change, negative = inhibition” value is reported as inactive: -0.953%. With CC(C)n1c(=S)[nH]c2scc(-c3cccs3)c2c1=O the Potency was inconclusive: 5.62 µM [inhibitor, single point]. In the case of C=CCn1cccc(C(=O)Nc2ccc(C)c(Cl)c2)c1=O, the “activity change, negative = inhibition” value is reported as inactive: -4.41%. For COc1ccc2[nH]c(=O)c(CNc3cccc(C)c3)cc2c1, the “activity change, negative = inhibition” value was inactive: -4.94%. With COc1ccc(-n2c(NCCN(C)C)nc3sc4c(c3c2=O)CCCCC4)cc1 the “activity change, negative = inhibition” value was inactive: 1.75%. With Cc1nccn1CC(=O)N/N=C/c1cccc(O)c1 the “activity change, negative = inhibition” value was inactive: 0.29%. In the case of COc1cccc(OCc2nc3ccccc3[nH]2)c1, the Potency is reported as inconclusive: 8.91 µM [inhibitor, partial curve, poor fit]. With CCOc1ccc(NS(=O)(=O)c2cc(NC(=O)c3cccc(C)c3)ccc2Cl)cc1 the Potency was inconclusive: 3.55 µM [inhibitor, partial curve]. With Cc1ccc2oc(C(=O)Nc3cc(C)on3)c(C)c2c1 the Potency was inconclusive: 4.47 µM [inhibitor, partial curve, poor fit]. In the case of Cc1ccc(S(=O)(=O)CCSc2ccc(C(F)(F)F)cn2)cc1, the Potency is reported as inconclusive: 2.24 µM [inhibitor, full curve]. With C/C=C/C(=O)N[C@@H]1c2ccccc2CC[C@@H]1OCc1ccccc1 the Potency was inconclusive: 5.01 µM [inhibitor, single point]. With Cc1ccccc1NC(=O)Cc1nc(COC(=O)c2ccc(Cl)c(S(N)(=O)=O)c2)cs1 the “activity change, negative = inhibition” value was inactive: 4.83%. With Cc1cccc2sc(N(CCCN(C)C)C(=O)CCS(=O)(=O)c3ccccc3)nc12 the Potency was inconclusive: 4.47 µM [inhibitor, partial curve, poor fit]. With Cc1ccc(N2CC(C(=O)Nc3nnc(SCC(=O)NCC4CCCO4)s3)CC2=O)cc1C (configuration not stated) the Potency was inconclusive: 0.199 µM [inhibitor, full curve, poor fit]. In the case of C=CCOc1ccc(C(=O)/C=C2/C(=O)Nc3ccccc32)cc1, the “activity change, negative = inhibition” value is reported as inactive: -11.3%. With O=C(NCc1ccccc1)c1ccc2c(=O)[nH]c3c(C(=O)NCC4CCCO4)sc(=S)n3c2c1 (configuration not stated) the “activity change, negative = inhibition” value was inactive: -2.96%. For CN(CC(=O)Nc1ccc(Cl)c(C(F)(F)F)c1)C(=O)c1cccc(N2C(=O)CCC2=O)c1, the Potency was inconclusive: 2 µM [inhibitor, full curve, poor fit]. For Cc1cccc(NC(=O)CN2CCN(CC(=O)NCC3(N4CCCCC4)CCCCC3)CC2)c1C, the Potency was inconclusive: 1.58 µM [inhibitor, single point]. In the case of O=C(CSc1nncc(=O)[nH]1)NCc1ccccc1, the “activity change, negative = inhibition” value is reported as inactive: 0.663%. In the case of O=C(Nc1ccc2c(c1)CCC2)c1ccc(Cl)nc1, the “activity change, negative = inhibition” value is reported as inactive: -25.4%. For Cn1c2ccccc2c(=O)c2ccc(F)cc21, the “activity change, negative = inhibition” value was inactive: -28.4%. For Cc1cc(C)nc(NC(=O)c2c(F)c(F)c(F)c(C(=O)Nc3cc(C)cc(C)n3)c2F)c1, the Potency was inconclusive: 8.91 µM [inhibitor, partial curve, poor fit]. In the case of Cc1ccc(CC(=O)NCc2ccc(Cl)cc2)cc1, the Potency is reported as inconclusive: 6.31 µM [inhibitor, partial curve, poor fit]. For COc1ccccc1OCc1csc(N)n1, the “activity change, negative = inhibition” value was inactive: -7.56%. With COc1ccc(NC(=O)c2ccc3nccnc3c2)cc1 the “activity change, negative = inhibition” value was inactive: -1.89%. With Cc1c(C)n(Cc2ccccc2)c2ncnc(Cl)c12 the Potency was inconclusive: 7.94 µM [inhibitor, partial curve, poor fit]. For Cc1cc(C)nc(SCc2nnc(SCc3ccccc3Cl)o2)n1, the “activity change, negative = inhibition” value was inactive: -0.296%. In the case of CCCN(CCC)CCCNC(=O)c1cc2cc3ccc(OC)cc3nc2o1, the “activity change, negative = inhibition” value is reported as inactive: -0.488%. In the case of O=C(c1cc(-c2ccncc2)nc2ccc(Br)cc12)N1CCN(c2ccccn2)CC1, the “activity change, negative = inhibition” value is reported as inactive: 2.56%. With CCN(CC(=O)NCc1cccs1)C(=O)COc1ccc(C(N)=O)cc1 the Potency was inconclusive: 2.51 µM [inhibitor, single point]. With CCCNC(=O)CN1CCC(c2nc3ccccc3[nH]2)CC1 the Potency was inconclusive: 12.6 µM [inhibitor, single point]. For CCN1CCN(c2ccc(S(=O)(=O)N3CCCCC3)cc2NC(=O)c2cccc(NC(C)=O)c2)CC1, the Potency was inconclusive: 2 µM [inhibitor, full curve, poor fit]. With CC1CN(C(=O)c2ccc(Br)c(S(=O)(=O)N3CCOCC3)c2)CC(C)O1 (configuration not stated) the Potency was inconclusive: 2.82 µM [inhibitor, single point]. In the case of COCC(=O)N1CCC(Oc2ccc(C(=O)N3CCCCCC3)cc2)CC1, the “activity change, negative = inhibition” value is reported as inactive: 15.1%. For Cc1c(Cl)cccc1-n1c(SCC(=O)N2CCC(C(=O)O)CC2)nc2ccccc2c1=O, the “activity change, negative = inhibition” value was inactive: 1.98%. For CC1CC(C)CN(CCCNC(=O)c2ccc3nc(N4CCOCC4)sc3c2)C1 (configuration not stated), the Potency was inconclusive: 8.91 µM [inhibitor, partial curve, poor fit]. With COCCOc1ccc(C(F)(F)F)cc1NC(=O)CN1C(=O)NC(C)(c2ccc3c(c2)OCO3)C1=O (configuration not stated) the Potency was inconclusive: 14.1 µM [inhibitor, single point]. In the case of CCOC(=O)c1c(C)[n+](-c2ccc(C)cc2)c(CC)c2cc(OC)c(OC)cc12, the Potency is reported as inconclusive: 11.2 µM [inhibitor, partial curve, poor fit]. For N/C(=N\OC(=O)c1ccccc1)c1ccn[nH]1, the “activity change, negative = inhibition” value was inactive: -15%. With CCOC(=O)c1cc(-c2cccs2)nc2c1c(C)nn2-c1ccccn1 the “activity change, negative = inhibition” value was inactive: 5.78%. In the case of CC(C)c1ccc2[nH]c(O)c(N=NC(=O)c3cccc(S(=O)(=O)Nc4ccccc4Cl)c3)c2c1, the “activity change, negative = inhibition” value is reported as inactive: 4.86%. With COC(=O)Nc1ccc(SCC(=O)c2cccc([N+](=O)[O-])c2)cc1 the Potency was inconclusive: 12.6 µM [inhibitor, single point]. In the case of Cc1cc(N/C=C/C(=O)c2cccs2)ccc1F, the Potency is reported as inconclusive: 5.62 µM [inhibitor, partial curve]. For CC(=O)Nc1ccc(O)c(-c2nc3ccccc3s2)c1, the “activity change, negative = inhibition” value was inactive: -10.3%. In the case of Cc1cccc(NC(=O)c2onc3c2CCCC3)n1, the Potency is reported as active: 3.98 µM. In the case of COc1cc2c(cc1OC)/C(=C/C(=O)c1ccc(F)cc1)NCC2, the “activity change, negative = inhibition” value is reported as inactive: 1.25%. With COc1cc(OC)c(C(=O)O/N=C(\N)c2ccccn2)cc1OC the Potency was inconclusive: 6.31 µM [inhibitor, partial curve]. For CC(C)(C)C(=O)/C(=C/c1ccncc1)n1cncn1, the Potency was inconclusive: 2.82 µM [inhibitor, full curve, poor fit]. With CN(Cc1cccc(Cl)c1)C(=O)C1CCC(=O)N(C2CC2)C1 (configuration not stated) the Potency was inconclusive: 12.6 µM [inhibitor, single point]. With CCN1C[C@@H]2[C@@H]3C(=O)N(C)C(=O)[C@@H]3[C@](Cc3ccccc3)(C1=O)N2C(=O)c1ccc(F)cc1 the “activity change, negative = inhibition” value was inactive: 9.03%.
